Results are given in words; binding and its absence hold for the method and conditions named. Some entries that bind do so weakly or less than the wild type.
How the values were obtained:
EGFR (human) [1] = molecular target: EGFR (human) (UniProt P00533); assay: co-localization with EGFR by fluorescence microscopy in H226 cells (similar results to rLZ-8)
EGFR (human) [2] = molecular target: EGFR (human) (UniProt P00533); assay: co-localization by fluorescence microscopy (figure legend)

B1: recombinant immunomodulatory protein derived from Ganoderma microsporum (protein)
chain: MSDTALIFTLAWNVKQLAFDYTPNWGRGRPSSFIDTVTFPTVLTDKAYTYRVVVSGKDLGVRPSYAVESDGSQKINFLEYNSGYGIADTNTIQVYVIDPDTGNNFIVAQWN
B1 was tested, and the binding (EGFR (human) [1]) was “binds” and the binding (EGFR (human) [2]) was “binds”.

From patent publication US20170080048A1
